This is an account of results in the supplement of paper PMC12819154, “High-throughput peptide-centric local stability assay extends protein–ligand identification to membrane proteins, tissues and bacteria” (Nature Structural & Molecular Biology, 2025).

Chains of the proteins cited; added tags and fusions are not shown. Lines headed by an entry give the natural chain unless they say otherwise; changes in a name come on top.
UniProt Q15398: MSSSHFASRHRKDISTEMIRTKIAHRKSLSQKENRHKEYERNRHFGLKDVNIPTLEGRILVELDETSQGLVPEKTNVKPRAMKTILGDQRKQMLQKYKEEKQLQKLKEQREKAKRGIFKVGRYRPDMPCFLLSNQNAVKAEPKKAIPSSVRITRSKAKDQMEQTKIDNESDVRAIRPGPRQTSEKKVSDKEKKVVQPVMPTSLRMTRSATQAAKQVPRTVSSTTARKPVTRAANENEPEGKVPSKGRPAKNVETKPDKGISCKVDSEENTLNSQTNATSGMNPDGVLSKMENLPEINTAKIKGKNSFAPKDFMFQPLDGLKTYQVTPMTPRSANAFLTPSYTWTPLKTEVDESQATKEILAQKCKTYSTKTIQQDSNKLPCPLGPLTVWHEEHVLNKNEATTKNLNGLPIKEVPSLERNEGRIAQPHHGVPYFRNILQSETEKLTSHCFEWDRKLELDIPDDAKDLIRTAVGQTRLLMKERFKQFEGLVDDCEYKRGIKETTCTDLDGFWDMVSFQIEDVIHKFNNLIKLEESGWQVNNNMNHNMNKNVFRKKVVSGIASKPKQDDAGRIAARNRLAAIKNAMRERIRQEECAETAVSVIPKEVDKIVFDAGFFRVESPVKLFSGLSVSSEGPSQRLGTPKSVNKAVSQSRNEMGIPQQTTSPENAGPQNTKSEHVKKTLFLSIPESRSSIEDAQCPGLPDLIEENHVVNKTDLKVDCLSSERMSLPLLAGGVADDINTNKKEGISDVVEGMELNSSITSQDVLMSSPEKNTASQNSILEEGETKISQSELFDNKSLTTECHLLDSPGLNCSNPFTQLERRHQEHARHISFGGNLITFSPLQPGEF
UniProt Q32MK0: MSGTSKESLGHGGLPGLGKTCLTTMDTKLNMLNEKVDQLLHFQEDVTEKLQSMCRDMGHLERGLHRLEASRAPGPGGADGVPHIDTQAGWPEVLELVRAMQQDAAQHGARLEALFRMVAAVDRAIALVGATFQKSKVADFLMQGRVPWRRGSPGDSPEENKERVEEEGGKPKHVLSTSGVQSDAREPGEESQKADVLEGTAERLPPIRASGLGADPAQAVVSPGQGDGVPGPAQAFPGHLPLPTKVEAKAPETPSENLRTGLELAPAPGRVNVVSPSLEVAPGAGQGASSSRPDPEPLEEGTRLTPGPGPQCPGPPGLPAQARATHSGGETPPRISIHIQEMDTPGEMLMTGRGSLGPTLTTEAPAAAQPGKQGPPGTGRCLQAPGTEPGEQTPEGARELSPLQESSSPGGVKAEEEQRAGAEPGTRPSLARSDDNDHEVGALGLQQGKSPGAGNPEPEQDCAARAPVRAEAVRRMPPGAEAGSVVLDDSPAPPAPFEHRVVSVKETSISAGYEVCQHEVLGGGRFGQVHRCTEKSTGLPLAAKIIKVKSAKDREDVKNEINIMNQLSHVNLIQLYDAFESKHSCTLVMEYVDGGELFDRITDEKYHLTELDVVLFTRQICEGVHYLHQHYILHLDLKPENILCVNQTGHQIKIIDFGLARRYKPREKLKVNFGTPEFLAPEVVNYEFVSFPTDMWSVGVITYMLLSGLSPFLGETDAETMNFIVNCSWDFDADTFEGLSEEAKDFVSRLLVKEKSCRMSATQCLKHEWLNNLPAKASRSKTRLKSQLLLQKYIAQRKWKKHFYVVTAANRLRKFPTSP
UniProt Q15642: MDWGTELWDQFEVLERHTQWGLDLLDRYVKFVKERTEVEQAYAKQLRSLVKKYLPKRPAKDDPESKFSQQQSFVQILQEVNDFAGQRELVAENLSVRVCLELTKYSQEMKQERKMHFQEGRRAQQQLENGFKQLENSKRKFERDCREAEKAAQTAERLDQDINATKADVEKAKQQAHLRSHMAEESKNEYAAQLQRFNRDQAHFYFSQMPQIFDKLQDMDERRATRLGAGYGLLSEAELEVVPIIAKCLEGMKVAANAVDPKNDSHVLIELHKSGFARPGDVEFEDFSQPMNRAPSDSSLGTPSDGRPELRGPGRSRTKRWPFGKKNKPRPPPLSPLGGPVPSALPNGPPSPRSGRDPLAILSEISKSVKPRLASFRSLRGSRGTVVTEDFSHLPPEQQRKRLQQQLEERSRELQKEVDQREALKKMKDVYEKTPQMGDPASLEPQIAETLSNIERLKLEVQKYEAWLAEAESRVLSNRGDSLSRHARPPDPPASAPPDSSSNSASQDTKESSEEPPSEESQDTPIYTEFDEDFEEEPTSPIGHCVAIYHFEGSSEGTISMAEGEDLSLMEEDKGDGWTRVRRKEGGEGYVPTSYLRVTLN
UniProt Q15345: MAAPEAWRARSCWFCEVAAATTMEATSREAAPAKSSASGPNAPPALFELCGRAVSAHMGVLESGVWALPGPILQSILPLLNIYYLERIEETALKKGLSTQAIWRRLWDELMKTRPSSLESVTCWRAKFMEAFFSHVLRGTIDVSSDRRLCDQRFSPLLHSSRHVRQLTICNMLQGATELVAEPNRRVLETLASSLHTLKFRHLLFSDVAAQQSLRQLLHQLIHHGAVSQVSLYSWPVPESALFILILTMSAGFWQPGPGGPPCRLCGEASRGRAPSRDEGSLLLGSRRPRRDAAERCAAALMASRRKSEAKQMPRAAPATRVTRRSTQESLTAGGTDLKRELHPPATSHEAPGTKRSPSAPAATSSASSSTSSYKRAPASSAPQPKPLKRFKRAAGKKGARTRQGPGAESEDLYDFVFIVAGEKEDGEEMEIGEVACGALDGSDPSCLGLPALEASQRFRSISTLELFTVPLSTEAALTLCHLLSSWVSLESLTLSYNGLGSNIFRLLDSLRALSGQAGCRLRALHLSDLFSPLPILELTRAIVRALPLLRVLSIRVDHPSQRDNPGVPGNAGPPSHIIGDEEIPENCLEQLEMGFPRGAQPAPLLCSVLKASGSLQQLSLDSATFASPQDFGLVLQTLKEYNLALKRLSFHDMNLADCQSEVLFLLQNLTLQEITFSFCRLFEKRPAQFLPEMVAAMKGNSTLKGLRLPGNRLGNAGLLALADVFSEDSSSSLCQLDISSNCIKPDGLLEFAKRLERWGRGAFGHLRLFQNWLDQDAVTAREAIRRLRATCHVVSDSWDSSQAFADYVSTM
UniProt Q17RY0: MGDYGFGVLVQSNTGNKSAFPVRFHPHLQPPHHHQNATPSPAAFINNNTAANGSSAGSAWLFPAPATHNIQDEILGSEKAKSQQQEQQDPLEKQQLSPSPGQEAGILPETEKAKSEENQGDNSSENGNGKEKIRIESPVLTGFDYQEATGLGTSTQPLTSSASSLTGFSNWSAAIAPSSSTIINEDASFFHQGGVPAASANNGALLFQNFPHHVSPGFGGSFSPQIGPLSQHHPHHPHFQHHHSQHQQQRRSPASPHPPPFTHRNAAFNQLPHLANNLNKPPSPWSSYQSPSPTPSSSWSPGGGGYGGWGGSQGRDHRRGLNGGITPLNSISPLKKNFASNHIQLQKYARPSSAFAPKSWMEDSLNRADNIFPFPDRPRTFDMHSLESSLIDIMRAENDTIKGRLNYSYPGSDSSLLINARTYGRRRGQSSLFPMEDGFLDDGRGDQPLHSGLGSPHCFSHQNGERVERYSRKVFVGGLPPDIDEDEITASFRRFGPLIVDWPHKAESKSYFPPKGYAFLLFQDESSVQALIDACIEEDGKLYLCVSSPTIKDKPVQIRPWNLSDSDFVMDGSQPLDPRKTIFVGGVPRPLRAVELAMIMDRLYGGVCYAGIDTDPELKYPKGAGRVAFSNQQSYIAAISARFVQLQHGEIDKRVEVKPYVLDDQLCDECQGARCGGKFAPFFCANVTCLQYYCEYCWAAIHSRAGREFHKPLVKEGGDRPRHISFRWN
UniProt Q15054: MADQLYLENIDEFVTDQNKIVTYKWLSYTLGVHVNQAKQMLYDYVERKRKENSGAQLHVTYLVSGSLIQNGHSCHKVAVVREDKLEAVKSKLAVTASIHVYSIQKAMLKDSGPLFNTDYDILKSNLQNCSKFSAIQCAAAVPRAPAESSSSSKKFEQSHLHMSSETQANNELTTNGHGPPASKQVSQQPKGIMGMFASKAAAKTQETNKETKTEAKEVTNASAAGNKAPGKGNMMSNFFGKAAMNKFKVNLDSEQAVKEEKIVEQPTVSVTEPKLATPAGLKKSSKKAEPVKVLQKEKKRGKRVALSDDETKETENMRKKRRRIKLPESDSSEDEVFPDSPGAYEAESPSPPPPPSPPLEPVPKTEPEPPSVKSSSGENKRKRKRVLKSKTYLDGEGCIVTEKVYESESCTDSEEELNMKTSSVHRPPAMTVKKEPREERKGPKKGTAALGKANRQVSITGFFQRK
UniProt Q2M3D2: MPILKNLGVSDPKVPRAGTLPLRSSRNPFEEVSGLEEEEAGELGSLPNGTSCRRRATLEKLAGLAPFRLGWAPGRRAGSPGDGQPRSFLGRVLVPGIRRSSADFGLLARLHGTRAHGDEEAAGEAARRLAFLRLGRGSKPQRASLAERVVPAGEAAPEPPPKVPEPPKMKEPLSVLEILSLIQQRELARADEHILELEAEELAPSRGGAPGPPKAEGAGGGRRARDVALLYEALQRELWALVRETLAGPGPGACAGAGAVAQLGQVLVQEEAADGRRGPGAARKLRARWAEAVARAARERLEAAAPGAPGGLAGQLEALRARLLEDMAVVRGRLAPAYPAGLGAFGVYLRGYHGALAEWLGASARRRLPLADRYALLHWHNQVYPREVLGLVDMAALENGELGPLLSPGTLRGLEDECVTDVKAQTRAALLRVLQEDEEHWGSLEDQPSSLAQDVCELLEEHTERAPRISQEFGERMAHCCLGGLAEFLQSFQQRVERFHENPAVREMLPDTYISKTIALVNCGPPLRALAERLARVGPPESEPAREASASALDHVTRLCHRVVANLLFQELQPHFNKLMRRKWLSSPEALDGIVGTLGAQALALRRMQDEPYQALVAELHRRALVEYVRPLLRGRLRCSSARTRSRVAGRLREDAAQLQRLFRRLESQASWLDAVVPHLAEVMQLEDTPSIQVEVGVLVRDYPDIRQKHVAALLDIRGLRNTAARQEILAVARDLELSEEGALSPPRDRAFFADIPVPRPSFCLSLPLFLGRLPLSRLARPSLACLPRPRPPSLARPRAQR
UniProt Q15007: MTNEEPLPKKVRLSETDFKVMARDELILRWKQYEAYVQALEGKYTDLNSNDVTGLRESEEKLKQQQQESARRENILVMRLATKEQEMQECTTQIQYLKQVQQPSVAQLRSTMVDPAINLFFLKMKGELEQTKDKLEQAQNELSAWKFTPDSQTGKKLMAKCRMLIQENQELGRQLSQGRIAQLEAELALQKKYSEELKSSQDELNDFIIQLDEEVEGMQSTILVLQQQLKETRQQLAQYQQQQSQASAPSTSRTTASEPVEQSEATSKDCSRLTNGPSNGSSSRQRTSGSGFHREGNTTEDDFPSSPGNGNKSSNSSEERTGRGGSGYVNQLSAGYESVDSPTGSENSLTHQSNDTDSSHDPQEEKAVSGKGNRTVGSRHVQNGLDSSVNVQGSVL
UniProt Q15061: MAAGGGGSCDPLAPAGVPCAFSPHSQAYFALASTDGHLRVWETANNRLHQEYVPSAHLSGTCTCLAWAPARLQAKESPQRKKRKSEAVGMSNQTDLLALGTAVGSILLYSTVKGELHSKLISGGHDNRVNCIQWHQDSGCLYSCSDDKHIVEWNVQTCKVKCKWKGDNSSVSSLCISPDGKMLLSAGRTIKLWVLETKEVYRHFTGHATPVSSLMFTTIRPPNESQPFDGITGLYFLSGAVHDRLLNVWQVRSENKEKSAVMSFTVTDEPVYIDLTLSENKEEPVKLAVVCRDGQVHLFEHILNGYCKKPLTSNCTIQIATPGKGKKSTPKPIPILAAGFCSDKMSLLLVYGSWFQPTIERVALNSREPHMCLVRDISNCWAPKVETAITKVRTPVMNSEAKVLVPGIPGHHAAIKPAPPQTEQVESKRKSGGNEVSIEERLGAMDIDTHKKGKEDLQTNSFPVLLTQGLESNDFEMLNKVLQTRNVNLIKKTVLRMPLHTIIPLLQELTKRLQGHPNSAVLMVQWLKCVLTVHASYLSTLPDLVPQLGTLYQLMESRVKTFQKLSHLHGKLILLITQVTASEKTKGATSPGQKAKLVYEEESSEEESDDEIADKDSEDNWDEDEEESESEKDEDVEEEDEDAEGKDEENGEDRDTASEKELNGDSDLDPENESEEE
UniProt Q3KRA9: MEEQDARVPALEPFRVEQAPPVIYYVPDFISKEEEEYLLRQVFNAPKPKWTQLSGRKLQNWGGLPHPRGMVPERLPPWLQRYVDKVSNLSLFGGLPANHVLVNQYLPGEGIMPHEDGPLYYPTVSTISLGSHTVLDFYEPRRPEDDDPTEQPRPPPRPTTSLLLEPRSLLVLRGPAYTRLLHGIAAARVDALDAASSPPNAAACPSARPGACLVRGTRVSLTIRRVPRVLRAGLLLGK

The other results are listed elsewhere or left out. Most entries show no effect beyond the scatter of the controls.

Compound in the assay: Cc1nc(Nc2ncc(C(=O)Nc3c(C)cccc3Cl)s2)cc(N2CCN(CCO)CC2)n1 [dasatinib]
Description: log2 fold change of tryptic peptide abundance, ligand vs vehicle (limited proteolysis) (log2 ratio); higher = more trypsin-susceptible (destabilized). The note with it: ligand concentration: 5 uM; sample: K562 cleared lysate.
“USF2 (peptide sequence: QQIEELKNENALLR, peptide start residue: 316) (UniProt Q15853)”: the log2 fold change came out at 0.412.

Turning to “MTFR1 (peptide sequence: VLFGPHMLKPTGK, peptide start residue: 310) (UniProt Q15390)”, the log2 fold change came to 0.189. For “BRD3 (peptide sequence: DLEDGEVPQHAGKK, peptide start residue: 292) (UniProt Q15059)”, the log2 fold change was -0.25. Next, “DHCR24 (peptide sequence: LTQGETLR, peptide start residue: 368) (UniProt Q15392)”: 0.277.

As to “TARBP2 (peptide sequence: FIEIGSGTSK, peptide start residue: 201) (UniProt Q15633)”, the log2 fold change is -0.414.

With “DLGAP5 (peptide sequence: TLFLSIPESR, peptide start residue: 679) (UniProt Q15398)”, the log2 fold change was -0.134. Next, “MYLK3 (peptide sequence: SDDNDHEVGALGLQQGK, peptide start residue: 433) (UniProt Q32MK0)”: -0.061; “JOSD1 (peptide sequence: EVGGAYYNLDSK, peptide start residue: 145) (UniProt Q15040)”: 0.329; “SETDB1 (peptide sequence: AVTNCESLVKDFYSK, peptide start residue: 88) (UniProt Q15047)”: 0.185.

Turning to “CYP51A1 (peptide sequence: YLQDNPASGEK, peptide start residue: 432) (UniProt Q16850)”, the log2 fold change was determined as 0.102. For “TRIP10 (peptide sequence: TEVEQAYAK, peptide start residue: 36) (UniProt Q15642)”, the log2 fold change was -0.26.

As for “LRRC41 (peptide sequence: CAAALMASR, peptide start residue: 297) (UniProt Q15345)”, the log2 fold change amounted to 0.34.

As for “PCGF3 (peptide sequence: IVIHQSHPLQYIGHDR, peptide start residue: 57) (UniProt Q3KNV8)”, the log2 fold change stood at 0.334.

Take “CPEB4 (peptide sequence: RSPASPHPPPFTHR, peptide start residue: 251) (UniProt Q17RY0)”: the log2 fold change was determined as 0.391.

In the case of “POLD3 (peptide sequence: SNLQNCSK, peptide start residue: 124) (UniProt Q15054)”, the log2 fold change is 0.192.

For the target “UniProt Q16352 (peptide sequence: EYQDLLNVK, peptide start residue: 382)”, the log2 fold change was -0.0894.

Take “UniProt Q2M3D2 (peptide sequence: MQDEPYQALVAELHRR, peptide start residue: 215)”: the log2 fold change is -0.476. For “CNN3 (peptide sequence: GPSYGLSAEVK, peptide start residue: 9) (UniProt Q15417)”, the log2 fold change is 0.0554.

On to “UniProt Q32P28 (peptide sequence: EADFKDLETQPHMQEFR, peptide start residue: 194)”, for which the log2 fold change is 0.431. For “SEC23B (peptide sequence: FLQPVHK, peptide start residue: 231) (UniProt Q15437)”, the log2 fold change was determined as 0.47.

“WTAP (peptide sequence: TNEEPLPK, peptide start residue: 2) (UniProt Q15007)”: the log2 fold change was -0.716. Regarding “ARHGEF6 (peptide sequence: LIIEETR, peptide start residue: 696) (UniProt Q15052)”, the log2 fold change stood at 0.163. With “WDR43 (peptide sequence: LWVLETK, peptide start residue: 192) (UniProt Q15061)”, the log2 fold change was -0.383.

Take “ALKBH6 (peptide sequence: LLHGIAAAR, peptide start residue: 180) (UniProt Q3KRA9)”: the log2 fold change is -0.778. Consider “SMAD1 (peptide sequence: RVESPVLPPVLVPR, peptide start residue: 130) (UniProt Q15797)”, for which the log2 fold change was -0.163. Next, “PPP2R5A (peptide sequence: FLESPDFQPSIAKR, peptide start residue: 169) (UniProt Q15172)”: -0.329.
